Reference: PubChem BioAssay AID1347075 (National Center for Advancing Translational Sciences (NCATS), 2019)
The campaign covered roughly 400,000 compounds. About 5,500 (1.4%) were called active. The inconclusive results got no clear call from the source; some entries with a clear call stand among them for comparison. Calls come from the whole dose curve; as a rule, active = well fitted cell-killing curve with a large enough effect; inconclusive = small, poorly fitted or top-dose-only effect, or effect the other way; inactive = flat fitted curve, though single readings scatter. Where the call is inconclusive, the potency comes from a doubtful curve fit.

Experiment: qHTS assay for MDR1-selective chemotherapeutics: Primary screen using the parental adenocarcinoma cell KB-3-1; note: nearly all actives have a fitted effect of over 60% in size
Conditions: KB-3-1 viability, CellTiter-Glo ATP luminescence, 72 h; activity change, negative = cytotoxic: at 46.1 µM (top of the series)
Summary of the method: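 72 h, 37 °C compound treatment of KB-3-1 parental cells; CellTiter-Glo added, 10 min, luminescence read. Data corrected against DMSO-only plates and normalized before curve fitting.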
% is set by controls: 0 for no effect and ±100 for the full control effect; potency is the fitted concentration of half-maximal effect.

SMILES | Potency | activity change, negative = cytotoxic
Cc1cccc(-n2c(SCC(=O)Nc3ncc(Cl)cc3Cl)nc3ccccc32)c1 | active: 2.91 µM | –
COc1ccc(-c2ccc(CCC(=O)O)n2CC(C)C)cc1 | inconclusive: 20.6 µM [cytotoxic, single point] | –
O=S(=O)(c1ccc(F)c(F)c1F)N1CCN(c2ncnc3sccc23)CC1 | inconclusive: 6.51 µM [cytotoxic, partial curve, poor fit] | –
Nc1nc(CN2CCC(Cc3ccccc3)CC2)nc(Nc2ccccc2)n1 | inconclusive: 16.4 µM [cytotoxic, partial curve, poor fit] | –
O=C(NC(NC(=S)Nc1ccccc1)C(Cl)(Cl)Cl)c1cccc(Cl)c1 (centres undefined) | inconclusive: 29.1 µM [cytotoxic, single point] | –
CCN(CC)c1ccc(NC(=O)C2CCN(c3nnc(-n4cccc4)s3)CC2)c(C)c1 | inconclusive: 0.0052 µM [rising, full curve] | –
CCCCCOc1ccc(Br)cc1/C(C)=N/NC1=NCCN1 | inconclusive: 0.58 µM [cytotoxic, full curve, poor fit] | –
CCCOc1ccc(C(O)(CCN2CCCCC2)c2ccccc2OC)cc1 (centres undefined) | – | inconclusive: -13.2%
Cc1ccc(S(=O)(=O)Nc2ccc(Cl)cc2O)cc1 | inconclusive: 18.4 µM [cytotoxic, single point] | –
COc1cccc(NC(=O)N(C2CCCCC2)C(C)c2cccs2)c1 (centres undefined) | inconclusive: 29.1 µM [cytotoxic, single point] | –
COc1cccc(-c2nnc(SCC(=O)N3CCOCC3)o2)c1 | inconclusive: 1.64 µM [rising, full curve, poor fit] | –
N#CC(=Nc1cccc(F)c1)C1=C(O)c2ccccc2C1=O | – | inactive: 15.8%
Cc1ccc(Cn2c(C(=O)O)c(CNCc3ccc(OC(C)C)cc3)c3ccc(C)cc32)cc1 | inconclusive: 20.6 µM [cytotoxic, single point] | –
Cc1cccc(-n2ncc3c2CCCC3NC(=O)c2cccs2)c1C (centres undefined) | inconclusive: 18.4 µM [cytotoxic, single point] | –
COc1ccc(CC(=O)NCC2CCCN(Cc3cccc(C(F)(F)F)c3)C2)cc1 (centres undefined) | inconclusive: 10.3 µM [cytotoxic, partial curve, poor fit] | –
COc1ccc(C(=O)N[C@H](C(=O)Nc2nc3ccccc3[nH]2)C(C)C)cc1 | active: 2.06 µM | –
CN(Cc1cnn(-c2ccc(F)cc2)c1)C(=O)[C@H]1O[C@@H](n2cnc3c(N)ncnc32)[C@H](O)[C@@H]1O | – | inactive: -0.0385%
C=CCC(C#Cc1ccccc1)[N+](C)(C)CC=C (centres undefined) | inconclusive: 16.4 µM [cytotoxic, partial curve, poor fit] | –
Cc1ccc(OCC(=O)Nc2cc(-c3nn4c(C)nnc4s3)ccc2C)cc1 | active: 18.4 µM | –
COCCNc1c2c(nc3c(-c4ccccc4)c(C)nn13)CCCC2 | – | inactive: -2.31%
CCC(CC)c1nnc(NC(=O)c2ccc3ccccc3n2)s1 | inconclusive: 22.4 µM [cytotoxic, single point] | –
Cc1cc(/C=N/n2cnnc2)c(C)n1-c1ccccc1 | active: 3.26 µM | –

Record cards, as listed above:
CCCOc1ccc(C(O)(CCN2CCCCC2)c2ccccc2OC)cc1 (centres undefined) in the list: activity change, negative = cytotoxic: inconclusive: -13.2%
CCC(CC)c1nnc(NC(=O)c2ccc3ccccc3n2)s1 in the list: Potency: inconclusive: 22.4 µM [cytotoxic, single point]

The results go on.

SMILES | Potency | activity change, negative = cytotoxic
COc1ccc(NS(=O)(=O)c2cc(NC(=O)c3ccc(Cl)cc3)ccc2N2CCOCC2)cc1 | inconclusive: 6.51 µM [cytotoxic, full curve, poor fit] | –
COc1ccc(NC(=O)c2cc3ccccc3cc2OC)cc1OC | – | inactive: -3.26%
COC(=O)CSC1=C(C#N)C(c2ccsc2)CC(=O)N1 (centres undefined) | inconclusive: 29.1 µM [cytotoxic, single point] | –
O=C(COC(=O)CC1CC2CCC1C2)Nc1ccc(F)cc1Cl (centres undefined) | – | inactive: -0.329%
CCOC(=O)c1ccc(N2C(=O)c3n[nH]c(-c4cccs4)c3C2c2ccc(OCC)cc2)cc1 (centres undefined) | inconclusive: 23.1 µM [cytotoxic, single point] | –
COc1ccc(OC)c(CCNC(=O)CS(=O)(=O)Cc2nc(-c3cccc(Cl)c3)oc2C)c1 | inconclusive: 29.1 µM [cytotoxic, single point] | –
Cc1ccc(NC(=O)c2cccc(C(=O)Nc3ccc(C)c(C)c3)n2)cc1C | inconclusive: 16.4 µM [rising, partial curve, poor fit] | –
S=C(Nc1cccc2ccccc12)NN1CCCCCC1 | – | inconclusive: -35.1%
Cc1cc(C(=O)Nc2ccc(Nc3ccccc3)cc2)ccc1[N+](=O)[O-] | inconclusive: 29.1 µM [cytotoxic, single point] | –
CC(/C=N/NC(=O)c1cc(-c2ccncc2)nc2ccccc12)=C\c1ccco1 | inconclusive: 16.4 µM [cytotoxic, single point] | –
CCNc1nc(NCC)nc(SCCOC(=O)COc2ccc(Cl)cc2Cl)n1 | – | inactive: 0%
CCOc1ccc(-n2c(N)c(C(=O)NCc3ccco3)c3nc4ccccc4nc32)cc1 | – | inactive: -4.02%
O=C(Nc1ccc(N2CCOCC2)c(Cl)c1)C1CCCCC1 | inconclusive: 20.6 µM [cytotoxic, single point] | –
Cc1ccc(-c2nc3nc(C)cc(N4CCN(c5cccc(C)c5C)CC4)n3n2)cc1 | – | inactive: -1.36%
O=C(Nc1ccc(F)cc1)N(CCCN1CCOCC1)Cc1cc2cc3c(cc2[nH]c1=O)OCCO3 | inconclusive: 20.6 µM [cytotoxic, single point] | –
CN(C)S(=O)(=O)c1ccc2c(c1)c(=O)c(C(=O)N1CCOCC1)cn2C | inconclusive: 20.6 µM [cytotoxic, partial curve, poor fit] | –
CCCOC(=O)C(C)n1cnc2sc(C)c(C)c2c1=O (centres undefined) | – | inactive: -7.8%
COc1ccc(CC(=O)Nc2ccc3nc(Nc4ccc(OC)cc4)cc(C)c3c2)cc1 | inconclusive: 29.1 µM [cytotoxic, single point] | –
COc1cc(/C=C(\C#N)C(N)=O)ccc1OS(=O)(=O)c1ccc(C)cc1 | – | inactive: 10%
CCOC(=O)c1c(C)[nH]c(C(=O)CN2C(=O)NC(C)(c3ccc(C)cc3)C2=O)c1C (centres undefined) | inconclusive: 18.4 µM [cytotoxic, single point] | –
CC(C)(C)OC(=O)N1CC(O)CC1C(=O)OCC(=O)c1ccc(-c2ccccc2)cc1 (centres undefined) | – | inactive: 6.96%
O=C(Cn1c(-c2ccccc2)c[n+]2ccsc12)c1ccc([N+](=O)[O-])cc1 | active: 20.6 µM | –
